Source: PubChem BioAssay AID504804 (Drosophila RNAi Screening Center, 2011)

- Screen: 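dsRNAs that improve Kc cell survival under doxorubicin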 (primary screen)
- Cells: Drosophila Kc cells
- Reagent: long dsRNA against Drosophila genes, 0.5 µg dsRNA per well
- Timing: 96 h (48 h knock-down, then 48 h drug)
- Treatment: doxorubicin 5 µg/ml for 48 h, added 48 h after dsRNA
- Measured: 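Viability measured as cellular ATP by luminescence after 48 h knock-down then 48 h doxorubicin at 5 µg/ml; unnormalised plate counts for each replicate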
- Scale: raw ATP luminescence: higher = more viable cells, protection from doxorubicin
- Rule for the call: 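z-score of 2 or more over plate mean in both duplicates, retained only when retests and separate dsRNAs confirm the protection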
In all, the deposit lists about 19,000 reagents; this is a random part of those with a known target gene and a result. Over the whole deposit, 47 (0.25%) are marked active. 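Signals are raw, not normalised; exact z-scores behind calls not deposited; actives needed confirmation, so some wells reaching 2 SD are inactive.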 Unmarked entries are inactive. Names joined by + are all predicted targets of the reagent. Reagent sequences are not shown.

gene | dsRNA | raw ATP luminescence, replicate 1 | raw ATP luminescence, replicate 2
CG5665 | DRSC11783 | 76080 | 68977
CG33340 | DRSC14615 | 63580 | 51980
Tsf3 (Transferrin 3) | DRSC06849 | 56833 | 60063
CG1136 | DRSC08184 | 36700 | 41067
T3dh + pgc | DRSC04659 | 70547 | 54777
pros (prospero) | DRSC12856 | 2.07e5 | 2.15e5
pros (prospero) | DRSC17032 | 44473 | 25597
eIF6 (eukaryotic translation initiation factor 6) | DRSC04674 | 72043 | 73260
ng2 (new glue 2) | DRSC18803 | 67120 | 67870
dsd (distracted) | DRSC13829 | 2.51e5 | 3.01e5
tey (teyrha-meyrha) | DRSC11042 | 80793 | 67670
CG3760 | DRSC04415 | 1.84e5 | 2.26e5
nonA-l (nonA-like) | DRSC17017 | 67270 | 67840
CG7523 | DRSC16254 | 36667 | 38797
del (deadlock) | DRSC03170 | 75220 | 69073
Uck (Uridine-cytidine kinase) | DRSC13661 | 1.26e5 | 2.37e5
Uck (Uridine-cytidine kinase) | DRSC16028 | 53890 | 67130
CG6974 | DRSC16160 | 62360 | 75370
CG12355 | DRSC09381 | 1.89e5 | 1.67e5
CG12355 | DRSC09883 | 43467 | 37437
CG15876 | DRSC08484 | 88877 | 87537
CG10477 | DRSC09732 | 70710 | 69150
CG11816 | DRSC19428 | 1.67e5 | 1.90e5
PGRP-SC1b (Peptidoglycan recognition protein SC1b) | DRSC07215 | 53397 | 45543
RpS11 (Ribosomal protein S11) | DRSC07289 | 82207 | 57583
Sgf11 (SAGA associated factor 11kDa) | DRSC09987 | 40917 | 37013
Ugt303B3 (UDP-glycosyltransferase family 303 member B3) | DRSC14199 | 55690 | 62720
para (paralytic) | DRSC19141 | 1.74e5 | 1.80e5
para (paralytic) | DRSC20360 | 2.13e5 | 1.82e5
CG34302 | DRSC12751 | 56890 | 47387
CG30383 | DRSC05062 | 77380 | 73407
CG10333 | DRSC02036 | 79777 | 55130
drosha | DRSC07607 | 56823 | 65593
Snx21 (Sorting nexin 21) | DRSC00564 | 1.17e5 | 87860

Individual results from above.
Result of CG12355 [DRSC09883] under “raw ATP luminescence, replicate 1”: 43467
Result of Sgf11 (SAGA associated factor 11kDa) [DRSC09987] in “raw ATP luminescence, replicate 2”: 37013
Entry of ng2 (new glue 2) [DRSC18803] in “raw ATP luminescence, replicate 1”: 67120
For “raw ATP luminescence, replicate 2”, CG11816 [DRSC19428] shows 1.90e5
Entry of Uck (Uridine-cytidine kinase) [DRSC13661] under “raw ATP luminescence, replicate 2”: 2.37e5
